Values from PubChem BioAssay AID504764 (Drosophila RNAi Screening Center, 2011).
Test: 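Knock-downs that raise or lower a Notch target reporter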 (primary screen). Cells: Drosophila Kc167 cells. Knock-down reagent: long dsRNA against Drosophila genes. Duration: about 5 days (4 days dsRNA, then 24 h after transfection). Treatment: transfection of constitutively active membrane-tethered Notch lacking the extracellular domain, read 24 h later. Read-out: 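Firefly luciferase from an E(spl)m3 reporter with active Notch, plus control-promoter and uninduced reporter wells for normalisation; unnormalised counts, duplicate wells a and b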. Scale: induced reporter light, run 1, well a and induced reporter light, run 1, well b: higher = more light from the Notch target reporter with active Notch; control promoter light, run 1, well a and control promoter light, run 1, well b: higher = more light from the viral control promoter (cell number, transfection, viability); uninduced reporter light, run 1, well a: higher = more light from the Notch target reporter without active Notch. Rule for the call: 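Wells with low control signal or poorly matching duplicates excluded; duplicates averaged; per source plate, z beyond ±2 for induced/control log2 ratio or beyond ±1.8 for induced/uninduced marks a hit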. Calls: active = modifier hit (raised or lowered Notch signal); inactive = not a hit.
The deposit covers about 22,000 reagents; below is a random part of those with a known target gene and a result. Of all reagents, 403 (1.9%) were called active. 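Unnormalised raw counts per well; ratio z-scores behind the hit calls and whether each hit raises or lowers signal are not deposited.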 The numbers tell different reagents against one gene apart. Reagent sequences are not shown. The record does not give: the amount of reagent.

no.	target	dsRNA no.	induced reporter light, run 1, well a	induced reporter light, run 1, well b	control promoter light, run 1, well a	control promoter light, run 1, well b	uninduced reporter light, run 1, well a	Outcome
1	ICA69	1	1.18e5	97515	56050	68265	9450	inactive
2	TwdlU	1	1.78e5	1.80e5	1.22e5	98275	9582	inactive
3	CG34324	1	1.67e5	1.45e5	3.04e5	1.85e5	9565	inactive
4	Mtpbeta	1	1.97e5	2.30e5	1.64e5	1.61e5	12940	inactive
5	mio	1	1.15e5	1.33e5	1.37e5	1.38e5	12230	inactive
6	mio	2						inactive
7	CG32563	1	21500	21775	20900	17315	2400	inactive
8	CG17127	1	1.04e5	1.14e5	60195	60670	15365	inactive
9	CCT6	1	58640	53720	79790	54635	5520	inactive
10	Prosbeta4R1	1	1.20e5	1.32e5	88625	64750	9175	inactive
11	Trf4	1	1.03e5	92690	1.03e5	83670	8865	inactive
12	exp	1	29100	31120	31445	31430	5035	inactive
13	AgmNAT	1	1.75e5	1.54e5	3.58e5	2.98e5	10525	inactive
14	CG18132	1	1.11e5	1.20e5	1.13e5	72335	10480	inactive
15	Nadk2	1	1.82e5	1.44e5	1.58e5	1.43e5	12835	inactive
16	CG15115	1	1.85e5	1.37e5	2.30e5	2.57e5	13670	inactive
17	bcn92	1	1.29e5	1.43e5	2.25e5	1.94e5	10490	inactive
18	CG14218	1	1.10e5	1.14e5	1.18e5	1.17e5	13120	inactive
19	CG13560	1	1.85e5	1.57e5	1.88e5	1.89e5	12990	inactive
20	CG18178	1	1.59e5	1.52e5	1.08e5	82785	12950	inactive
21	Nipped-A	1	2.24e5	2.25e5	1.95e5	1.75e5	16750	inactive
22	Nipped-A	2	1.48e5	1.79e5	1.62e5	1.82e5	14710	active
23	Nipped-A	3	71065	71895	1.17e5	1.10e5	5800	active
24	Nipped-A	4	1.45e5	1.30e5	3.58e5	3.06e5	9600	inactive
25	Nipped-A	5						active
26	CYLD	1	1.17e5	1.48e5	71740	99770	18510	inactive
27	tsl	1	2.09e5	1.82e5	1.83e5	1.96e5	13400	inactive
28	CG5521	1	1.63e5	1.48e5	1.81e5	1.93e5	13000	inactive
29	Tbce	1	2.10e5	2.34e5	2.08e5	2.20e5	15480	inactive
30	CAH2	1	1.62e5	1.26e5	1.92e5	1.67e5	8255	inactive
31	Cyt-c1L	1	1.32e5	1.20e5	1.86e5	1.64e5	12600	inactive
32	CG8152	1	73835	73300	1.12e5	1.10e5	6345	inactive
33	CG15330	1	1.34e5	1.32e5	2.98e5	2.28e5	9160	inactive
34	tin	1	2.64e5	2.05e5	2.35e5	2.69e5	18695	inactive
35	tin	2						inactive

Targets listed so far whose target name starts with N or n:
target	dsRNA no.	induced reporter light, run 1, well a	induced reporter light, run 1, well b	control promoter light, run 1, well a	control promoter light, run 1, well b	uninduced reporter light, run 1, well a	Outcome
Nadk2	1	1.82e5	1.44e5	1.58e5	1.43e5	12835	inactive
Nipped-A	1	2.24e5	2.25e5	1.95e5	1.75e5	16750	inactive
Nipped-A	2	1.48e5	1.79e5	1.62e5	1.82e5	14710	active
Nipped-A	3	71065	71895	1.17e5	1.10e5	5800	active
Nipped-A	4	1.45e5	1.30e5	3.58e5	3.06e5	9600	inactive
Nipped-A	5						active
